PubChem BioAssay AID686943 – Drosophila RNAi Screening Center – 2013

Assay: 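Search across the genome for regulators of signalling from receptor tyrosine kinase to ERK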 (primary screen)
Cell system: Drosophila S2R+ haemocyte-like cells expressing YFP-tagged ERK (Rolled)
Reagents: long dsRNA against Drosophila genes
Conditions: insulin stimulation versus unstimulated cells; dose and duration not given
Detection: 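Per-plate z-scores of phospho-ERK immunostaining normalised to YFP-tagged ERK, measured with and without insulin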
Reading the numbers: replicate 1, z-score of dpERK with insulin and replicate 2, z-score of dpERK with insulin: higher = more active ERK per ERK-YFP after insulin; replicate 1, z-score of dpERK under basal conditions: higher = more basal active ERK per ERK-YFP; replicate 1, z-score of ERK-YFP with insulin: higher = more YFP-tagged ERK signal
In all, the deposit lists about 23,000 reagents; this is an unselected part of those with a known target gene and a result. 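Extra replicates exist only for a retested subset of genes; insulin dose and duration not given; both raised and lowered dpERK matter.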 The numbers tell different reagents against one gene apart. Not stated in the record: the amount of reagent, the time to read-out.

gene	reagent no.	replicate 1, z-score of dpERK with insulin	replicate 2, z-score of dpERK with insulin	replicate 1, z-score of dpERK under basal conditions	replicate 1, z-score of ERK-YFP with insulin
CG11899	1	0.09	-0.14	-1.38	0.76
CG12853	1	0.98	0.01	0.31	-0.76
CG14856	1	1.18	-1.66	-1.03	0.02
Toll-6	1	0.38	0.56	0.39	0.2
CG30289	1	-0.38	-0.72	1.15	0.15
CR31427	1	0.25	0.54	0.29	1
GstE3	1	-0.8	0.56	-0.1	-0.61
Mics1	1	0.36	-0.08	0.29	0.61
ogre	1	-0.44	-0.14	0.6	0.17
Snap24	1	0.87	0.27	-0.36	-0.63
HSPBAP1	1	-0.6	0.01	1.41	0.39
ssp6	1	0.13	0.05	1.04	0.59
ssp6	2	-3.51	-3.51	-1.26	-0.51
CG34241	1	1.23	0.16	0.83	-0.25
Cpr56F	1	0.23	0.22	1.6	0.76
l(1)G0469	1	0.66	0.5	0.38	-0.05
l(1)G0469	2	-0.61	0.13	0.08	0.04
LTV1	1	-0.07	-0.63	-0.24	-0.68
CG7179	1	1.22	0.44	0.78	2.06
Alr	1	1.09	1.68	-0.62	1.09
clumsy	1	-0.1	0.06	0.9	-0.3
CG32246	1	-0.76	-0.84	-0.74	0.89
spn-A	1	-0.01	0.11	-0.38	1.14
CG12674	1	0.15	0.55	-1.12	0.24
kuk	1	-0.63	-0.18	1.04	0.06
CG10725	1	-0.22	-0.06	0.32	1.95
plh	1	1.06	0.9	0.44	0.16
CG15035	1	-0.29	0.91	0.43	0.31
Dnz1	1	-0.41	-0.64	-1.09	0.59
gsb	1	0.39	0.45	0.25	-0.06
CG6282	1	0.92	-0.63	-0.2	-0.2
toe	1	0.2	0.51	-1.02	-0.23
toe	2	-0.39	0.05	0.91	0.51
CG43335	1	0.08	-1.48	-0.23	0.23
CG43335	2	0.33	0.47	-0.81	-2.38
CG13693	1	0.11	-0.59	-0.48	0.15
mamo	1	-5.81	-2.96	-3.23	-2.62
mamo	2	0.14	-0.7	1.38	0.38
mamo	3	0.52	0.58	0.14	0.38
mamo	4	1.17	-1.31	1.84	-0.2
mamo	5	1.17	0.12	0.43	-0.42
